Source: doi:10.1101/2020.07.08.194076
Results are given in words; binding and its absence hold for the method and conditions named. Binding seen in cells or lysates may run through a third protein. Where a sequence is shown, tags or fusion partners need not be part of it.

B1: Phytoene synthase 1 (PSY1), tomato, C-terminal HA tag (enzyme, UniProt P08196 130-412)
chain: EYAKTFNLGTMLMTPERRRAIWAIYVWCRRTDELVDGPNASYITPAALDRWENRLEDVFNGRPFDMLDGALSDTVSNFPVDIQPFRDMIEGMRMDLRKSRYKNFDELYLYCYYVAGTVGLMSVPIMGIAPESKATTESVYNAALALGIANQLTNILRDVGEDARRGRVYLPQDELAQAGLSDEDIFAGRVTDKWRIFMKKQIHRARKFFDEAEKGVTELSSASRFPVWASLVLYRKILDEIEANDYNNFTKRAYVSKSKKLIALPIAYAKSLVPPTKTASLQR
B2: Phytoene synthase 2 (PSY2), tomato, C-terminal HA tag (enzyme, UniProt P37273 26-310)
chain: EYAKTFYLGTMLMTPDRRRAIWAIYVWCRRTDELVDGPNASHITPQALDRWEARLEDIFNGRPFDMLDAALSDTVSRFPVDIQPFRDMVEGMRMDLWKSRYNNFDELYLYCYYVAGTVGLMSVPIMGIAPESKATTESVYNAALALGIANQLTNILRDVGEDARRGRVYLPQDELAQAGLSDEDIFAGKVTDKWRIFMKKQIQRARKFFDEAEKGVTELSSASRWPVLASLLLYRKILDEIEANDYNNFTRRAYVSKPKKLLTLPIAYARSLVPPKSTSCPLAKT

Target: T1, Arabidopsis phosphoribulokinase, Myc-tagged (Arabidopsis) (UniProt P25697)
T1 sequence: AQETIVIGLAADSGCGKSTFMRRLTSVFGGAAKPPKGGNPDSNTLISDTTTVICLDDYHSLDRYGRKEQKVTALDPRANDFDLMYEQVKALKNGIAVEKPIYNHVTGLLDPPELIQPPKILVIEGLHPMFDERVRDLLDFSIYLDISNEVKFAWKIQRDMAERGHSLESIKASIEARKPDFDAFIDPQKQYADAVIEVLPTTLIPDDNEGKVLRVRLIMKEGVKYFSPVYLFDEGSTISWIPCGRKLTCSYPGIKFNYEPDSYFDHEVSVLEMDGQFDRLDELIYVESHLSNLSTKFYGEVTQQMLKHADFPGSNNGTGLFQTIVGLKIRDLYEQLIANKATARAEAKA
Assay: co-IP

Binder | binding
B1 | no binding
B2 | no binding
